In PubChem BioAssay AID2685 (National Center for Advancing Translational Sciences (NCATS), 2010):
Among all 320,000 compounds or so, about 2,100 (0.66%) were called active. This list was built around the results that the source calls inconclusive (neither active nor inactive); the mix of calls is not that of the screen. Calls come from the whole dose curve; as a rule, active = well fitted inhibition curve with a large enough effect in the signal ratio, with a control signal flat (not every such curve was filed as active); inconclusive = small, poorly fitted or top-dose-only effect, or effect the other way, or a change in a side signal; inactive = flat fitted curve, though single readings scatter; the % refers to the signal ratio. Potencies beside an inconclusive call are fits to weak or partial responses and may not hold up.

Assay: qHTS Assay for Lipid Storage Modulators in Drosophila S3 Cells
Settings: BODIPY lipid droplet fluorescence, 18-24 h, cells fed with added oleic acid; lipid storage change, negative = inhibition: at 46.1 µM (top of the series) unless noted
Procedure, shortened: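 Drosophila S3 cells loaded with oleic acid (400 uM, as added) and compounds at several concentrations; lipid droplets imaged by 488-nm laser-scanning cytometry, 500–530 nm intensity and object ratio to cell channel. Percent activity normalized to 20 uM Triacsin C.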
% is set by controls: 0 for no effect and ±100 for the full control effect; potency is the fitted concentration of half-maximal effect.

Row | SMILES | lipid storage change, negative = inhibition | Potency | outcome
1 | CCC(=O)N1CCC2(CC1)Oc1ccc(F)cc1C(=O)C21CC(c2ccc(Cl)cc2)=NO1 (stereo not drawn) | inconclusive: 18.6% |  | 
2 | O=C(COc1ccc(Cl)cc1Br)Nc1ccncc1 | inconclusive: -0.859% |  | 
3 | CN1C(=O)Cn2c1nc1ccccc12 | inconclusive: -15% |  | 
4 | O=C(NCCc1cccnc1)c1cc(COc2ccc(F)cc2Cl)on1 | inconclusive: -4.64% |  | 
5 | Cc1cc(N2CCCC2)ccc1NC(=O)CN1C(=O)NC(C)(c2ccccc2)C1=O (stereo not drawn) |  | inconclusive: 29.1 µM [activator, single point] | 
6 | O=C(NCn1cnccc1=O)c1ccccc1 |  | active: 20.6 µM | 
7 | CCOC(=O)c1c(-c2cccs2)csc1NC(=O)CNCCN1CCOCC1 | inconclusive: 7.39% |  | 
8 | Cc1ccc(CNC(=O)C(=O)NCC2OCCCN2S(=O)(=O)c2cccs2)cc1 (stereo not drawn) | inconclusive: 27.9% |  | 
9 | COc1ccccc1NC(=O)/C=C1\NC(=O)CS1 | inconclusive: 34% |  | 
10 | CC(N)(C(=O)O)c1cccc(OCc2cccc(Cl)c2)c1 (stereo not drawn) | inconclusive: 2.65% |  | 
11 | COc1ccc(S(=O)(=O)N2CCCCCC2)cc1NC(=O)c1c2c(nc3ccccc13)CCN(Cc1ccccc1)C2 |  | inconclusive: 23.1 µM [falling, partial curve, poor fit] | 
12 | CO/N=C/CC(=O)Nc1ccc(F)cc1F | inactive: 1.73% |  | 
13 | O=C(c1ccccc1S(=O)(=O)NCc1ccccc1)N1CCCCC1 | inconclusive: -17.7% |  | 
14 | CSc1ccccc1NC(=O)CN(C)C(=O)CNc1ccc(C(F)(F)F)cc1[N+](=O)[O-] |  | inconclusive: 29.1 µM [falling, single point] | 
15 | Cc1ccsc1/C=C(/C#N)C(=O)NCc1ccccc1 | inconclusive: 19.9% |  | 
16 | Cc1cc(C)c(C2=CSC3=NS(=O)(=O)CCN23)c(C)c1 | inconclusive: -6.62% |  | 
17 | CN1CCC(OC(=O)c2cc3cc(Cl)cc(Cl)c3oc2=O)CC1 | inconclusive: 18.4% |  | 
18 | O=C(Nc1cccc(S(=O)(=O)NC2=NCCC2)c1)c1c(F)cccc1Cl | inconclusive |  | 
19 | Cc1ccccc1NC(=O)C1CC(=O)N(Cc2ccccc2)C1 (stereo not drawn) | inconclusive: 4.06% |  | 
20 | CC(=O)Nc1ccc(S(=O)(=O)Nc2cccc(-c3nc4ccccc4o3)c2)cc1 | inconclusive: 197% |  | 
21 | CSc1ncc(CN2CCN(CCC(C)C)C(CCO)C2)cn1 (stereo not drawn) |  | inconclusive: 20.6 µM [activator, single point] | 
22 | O=C(COC(=O)c1ccc(Cl)nc1)NC1CCCCCC1 | inconclusive: -32% |  | 
23 | COc1cc(NC(=S)NC(=O)c2ccc(C)cc2C)ccc1NC(=O)c1cccs1 |  | inconclusive: 0.58 µM [falling, single point] | 
24 | O=C(/C=C/c1ccc(Cl)cc1)OCC(=O)c1ccc[nH]1 | inconclusive: -14.7% |  | 
25 | COc1cccc(NC(=O)CC2COc3ccccc3O2)c1 (stereo not drawn) | inconclusive: -53.7% |  | 
26 | Cc1nonc1CN(C)C(=O)CC1C(=O)NCCN1Cc1ccc(F)c(F)c1 (stereo not drawn) | inconclusive: -20.4% |  | 
27 | O=C(NCc1ccc(Cl)cc1)c1cccc(S(=O)(=O)N2CCCC2)c1 |  | inconclusive: 3.26 µM [falling, single point] | 

Structures shown so far containing an aryl thioether with sulfur outside any ring, in the order listed:
Row | SMILES | lipid storage change, negative = inhibition | Potency | outcome
14 | CSc1ccccc1NC(=O)CN(C)C(=O)CNc1ccc(C(F)(F)F)cc1[N+](=O)[O-] |  | inconclusive: 29.1 µM [falling, single point] | 
21 | CSc1ncc(CN2CCN(CCC(C)C)C(CCO)C2)cn1 (stereo not drawn) |  | inconclusive: 20.6 µM [activator, single point] | 

Next compounds:

Row | SMILES | lipid storage change, negative = inhibition | Potency | outcome
28 | O=c1[nH]c(Cc2cccs2)nc2ccccc12 | inconclusive: -15.2% |  | 
29 | C=CCN1C(=O)C(Cc2ccc(F)cc2)S/C1=N/N=C/c1ccco1 (stereo not drawn) | inconclusive: 23.3% |  | 
30 | NS(=O)(=O)c1cccc(NC(=O)CNC(=O)CC23CC4CC(CC(C4)C2)C3)c1 | inconclusive: -37.1% |  | 
31 | CC(=O)c1ccc(OCCCCCCCOc2ccc(C(C)=O)cc2)cc1 |  | inconclusive: 5.8 µM [falling, single point] | 
32 | O=C(Nc1ccc(S(=O)(=O)N2CCCCC2)cc1)c1ccncc1 | inconclusive: 57% |  | 
33 | CCN1CCN(c2ccc(NC(=O)CCc3c(C)nc4c(-c5ccccc5)c(C)nn4c3C)cc2)CC1 | inconclusive: -13.8% [at 9.22 µM] |  | 
34 | COc1ccc(C(=O)NCC(=O)OCn2nnc3ccccc3c2=O)cc1OC | inconclusive: 8.65% |  | 
35 | COc1cc(C(=O)OC2CCN(C)CC2)cc(OC)c1OC |  | inconclusive: 29.1 µM [falling, single point] | 
36 | CCCn1c(SCC(=O)Nc2nnc(CC)s2)nc2c1c(=O)n(C)c(=O)n2C | inconclusive: -22.2% |  | 
37 | Cc1ccc(NC(=O)c2ccc(Cn3cc([N+](=O)[O-])cn3)cc2)c(C)c1 | inconclusive: -22.5% |  | 
38 | COc1ccc(NC(=O)c2cc(S(=O)(=O)N3CCCC3)c[nH]2)cc1 | inconclusive: -32.9% |  | 
39 | COc1ccc(-c2csc(N(CCCN(C)C)C(=O)c3ccc(C(C)(C)C)cc3)n2)cc1 | inconclusive: -100% |  | 
40 | Cc1ccc(C(=O)N2CCCC(CCC(=O)NCc3ccc(F)c(F)c3)C2)cn1 (stereo not drawn) | inconclusive: 2.31% |  | 
41 | O=C(CSc1ccc2ccccc2n1)NC1CC1 |  | inconclusive: 18.4 µM [activator, partial curve] | 
42 | Cc1cc(Cl)c(C(=O)Nc2cccc(C(F)(F)F)c2)c(C)n1 | inconclusive: -38.5% |  | 
43 | Cc1ccccc1OCC(=O)OCC(=O)NCc1cccs1 | inconclusive: -5.85% |  | 
44 | O=C(Nc1ccc(S(=O)(=O)Nc2nccs2)cc1)c1cc(-c2ccccc2)nc2ccccc12 | inconclusive: 6.07% |  | 
45 | CCNS(=O)(=O)c1cc(S(C)(=O)=O)ccc1Cl | inconclusive: -29.4% |  | 
46 | CCCC1C2CN(C(C)=O)CC=C2C(C#N)=C(N)C1(C#N)C#N (stereo not drawn) |  | inconclusive: 2.59 µM [activator, partial curve] | 
47 | Cc1c(C(=O)NCc2ccccn2)oc2c(Cl)cccc12 | inconclusive: 11.6% |  | 
48 | CC(Sc1nnnn1-c1ccc(O)cc1)C(=O)NC1CCCCC1C (stereo not drawn) | inconclusive: 25.8% |  | 
49 | CCN1C(=O)CC(c2ccccc2)CC1=O | inconclusive: -51.1% |  | 
50 | CC(=O)c1cccc(NS(=O)(=O)c2ccc(N/C=C/C(=O)c3ccc(F)cc3)cc2)c1 |  |  | inactive [at 46.1 µM]
51 | CC(C)(C)NC(=O)c1ccc2c3c(cccc13)CC2 | inconclusive: 3.73% |  | 
52 | Cc1ccc(OCc2cc(C(=O)N(C)CCc3nc4ccccc4[nH]3)no2)cc1C | inconclusive: -51.4% |  | 
53 | Cc1oc2cc3oc(=O)cc(C)c3cc2c1C | inconclusive: 213% |  | 
